Experimental data taken from PMC4272302.
Results are given in words; binding and its absence hold for the method and conditions named. For some of these results: In cells and extracts the contact can be indirect. Some entries that bind do so weakly or less than the wild type. For some of these results: Sequences can lack the tags named with a protein.

Assays:
[1] = target: LexA-MAP6d1 (mouse) (UniProt Q14BB9); assay: two-hybrid; yeast two-hybrid, LexA bait (pLex10) and GAD prey (pAct2); growth on medium lacking leucine, tryptophan and histidine, and β-galactosidase staining
[2] = target: T1, MAP6d1-GGG-myc (mouse) (UniProt Q14BB9); assay: co-IP; COS-7 cells co-transfected with a GFP-tagged and a myc-tagged MAP6d1; lysed 15 h after transfection in IP buffer (50 mM Tris, 150 mM NaCl, 0.05% deoxycholate, 1% Triton X-100, 10% glycerol, pH 8.0); IP with anti-myc (Protein G-Sepharose) or anti-GFP (Protein A-Sepharose), 1 h at 4°C, five washes; western blot
T1 sequence: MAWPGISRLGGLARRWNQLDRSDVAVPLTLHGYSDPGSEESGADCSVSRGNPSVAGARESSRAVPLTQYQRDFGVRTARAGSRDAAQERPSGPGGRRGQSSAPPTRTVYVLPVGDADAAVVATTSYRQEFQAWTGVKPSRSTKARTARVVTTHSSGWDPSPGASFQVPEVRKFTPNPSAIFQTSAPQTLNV

[3] = target: MAP6d1-myc (mouse) (UniProt Q14BB9); assay: as above
[4] = target: MAP6d1-GFP (mouse) (UniProt Q14BB9); assay: as above

GAD-MAP6d1 (from UniProt Q14BB9 1-191)
binding [1]: binds

MAP6d1-GFP (from UniProt Q14BB9 1-191)
binding [2]: binds | binding [3]: binds

MAP6d1-myc (from UniProt Q14BB9 1-191)
binding [4]: binds
